Data as given in PMC5656757.
These are yes or no findings as the source states them, for the method shown. In cells and extracts the contact can be indirect. Some results given as binding are weak or reduced against the parent protein; the word gives no strength.

Sequences of proteins named here, by UniProt entry; tags and fusion partners are left off. Residues count along the entry.
UniProt P08013: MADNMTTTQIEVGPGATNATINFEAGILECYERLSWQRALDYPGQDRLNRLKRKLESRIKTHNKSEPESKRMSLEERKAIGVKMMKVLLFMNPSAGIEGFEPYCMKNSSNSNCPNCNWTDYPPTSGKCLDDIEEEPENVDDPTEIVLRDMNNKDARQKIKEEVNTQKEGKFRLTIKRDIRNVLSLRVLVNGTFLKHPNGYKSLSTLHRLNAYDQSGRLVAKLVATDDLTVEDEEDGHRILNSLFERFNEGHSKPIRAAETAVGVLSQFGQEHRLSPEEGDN
UniProt P05161, residues 1-157: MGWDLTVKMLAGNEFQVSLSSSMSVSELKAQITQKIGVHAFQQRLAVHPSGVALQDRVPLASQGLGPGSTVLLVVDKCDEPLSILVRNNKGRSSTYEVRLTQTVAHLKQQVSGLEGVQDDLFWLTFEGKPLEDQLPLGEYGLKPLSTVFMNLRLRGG
UniProt P19525: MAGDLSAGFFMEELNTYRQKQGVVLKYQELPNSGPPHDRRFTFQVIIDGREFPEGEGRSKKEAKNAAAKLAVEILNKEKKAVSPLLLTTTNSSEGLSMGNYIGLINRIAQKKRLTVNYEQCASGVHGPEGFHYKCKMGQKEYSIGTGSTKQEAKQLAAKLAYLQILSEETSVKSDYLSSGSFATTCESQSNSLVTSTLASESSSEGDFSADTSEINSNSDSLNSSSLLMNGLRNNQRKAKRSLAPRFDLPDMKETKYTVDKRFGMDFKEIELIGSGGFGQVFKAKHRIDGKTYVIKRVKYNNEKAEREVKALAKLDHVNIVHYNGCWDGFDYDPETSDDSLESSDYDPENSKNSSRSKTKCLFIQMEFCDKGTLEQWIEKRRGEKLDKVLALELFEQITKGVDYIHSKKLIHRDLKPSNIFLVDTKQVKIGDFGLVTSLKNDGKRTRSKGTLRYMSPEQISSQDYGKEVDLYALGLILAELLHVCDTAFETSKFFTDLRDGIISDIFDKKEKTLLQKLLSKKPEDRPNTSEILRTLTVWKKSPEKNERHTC

Molecular target: N-terminal V5-tagged FLUBV NS1 protein (strain B/Yamagata/1/73) (influenza B virus (strain B/Yamagata/1/73)) (UniProt P08013)
Assay: co-IP

Substance | binding
ISG15 (from UniProt P05161 1-157) | binds
dsRNA-activated protein kinase, PKR (from UniProt P19525 1-551) | binds
